Test results taken from PubChem BioAssay AID2685 (National Center for Advancing Translational Sciences (NCATS), 2010).
Some of the results follow. These are further read-outs of the screen, such as a control signal, another cell line or another target. No call is given for them. Most of these compounds were active or inconclusive in the main read-out, so they are no random draw. Potencies come from curve fits of mixed quality, noted in brackets.

Experiment: qHTS Assay for Lipid Storage Modulators in Drosophila S3 Cells;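 on cell number change: cells counted by Cell Tracker Red CMTPX staining in the red channel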
Details: BODIPY lipid droplet fluorescence, 18-24 h; for cell number change: measured here: cell count max response, cells fed with added oleic acid
Summary of the method: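 Drosophila S3 cells got compounds at several concentrations plus oleic acid (400 uM solution). Laser-scanning cytometry with 488 nm excitation read lipid droplets at 500-530 nm and cells at 575-640 nm. Percent activity was relative to 20 uM Triacsin C.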

[1] = measured here: cell number channel AC50, cells fed with added oleic acid
[2] = measured here: lipid fluorescence (Fed channel) AC50, cells fed with added oleic acid

Row | SMILES | cell number change | AC50 [1] | AC50 [2]
1 | O=C1c2ccccc2C(=O)C12OC2c1ccc(Cl)cc1Cl (stereo unspecified) | -30.6% | 29.1 µM [falling, single point] | 0.58 µM [falling, full curve]
2 | Cc1ccc(/C=C/c2ccc(=O)n(Cc3ccccc3Cl)n2)cc1 | -143% | 2.59 µM [rising, single point] | 
3 | CCOC(=O)c1[nH]cnc1C(=O)Nc1ccc([N+](=O)[O-])cc1 | 2.78% |  | 
4 | C=CCNc1nc(Nc2ccc(OC)cc2OC)nc(OCC)n1 | -15.3% |  | 1.46 µM [rising, partial curve]
5 | Cc1ccccc1CN(C)C(C)C(=O)Nc1ccccc1F (stereo unspecified) | -58.8% | 0.731 µM [falling, partial curve] | 29.1 µM [falling, single point]
6 | COc1cc(NC(=O)CSc2nnc(NC(C)C)s2)cc(OC)c1OC |  | 0.58 µM [rising, partial curve] | 6.51 µM [rising, single point]
7 | C/C(=N\NC(=O)c1ccc2c(c1)OCO2)c1ccc(NC(=O)CCCC(=O)O)cc1 | -11.9% |  | 29.1 µM [rising, single point]
8 | COc1ccc(CN2CCN(C(C)C(=O)NC(C)c3ccc(F)cc3)CC2)cc1F (stereo unspecified) | 4.58% |  | 0.164 µM [rising, full curve, poor fit]
9 | COc1ccc(CN(C)C(=O)c2sccc2-c2ccccc2)c(OC)c1 | 0.796% |  | 
10 | COc1ccc(NC(=O)/C=C/c2cccc(F)c2)cn1 | 15.4% |  | 10.3 µM [rising, partial curve]
11 | COc1ccc(CCNC(=O)CS(=O)(=O)c2cn(CC(=O)N3CCCC3)c3ccccc23)cc1OC | -36.2% | 0.184 µM [falling, full curve, poor fit] | 29.1 µM [falling, single point]
12 | Cc1ccccc1C(=O)Nc1nc2n(n1)C(c1ccccc1)CC(=O)N2 (stereo unspecified) | -43.5% | 0.058 µM [falling, full curve, poor fit] | 
13 | Cc1ccccc1CC1(CO)CCCN(Cc2ccn[nH]2)C1 (stereo unspecified) | -16.4% |  | 4.11 µM [falling, full curve]
14 | Cc1cccc(C)c1NC(=O)NC1CCc2ccccc21 (stereo unspecified) | 26.8% |  | 1.84 µM [rising, full curve, poor fit]
15 | CCn1c(SCc2ccccc2)nnc1-c1ccc(S(=O)(=O)N2CCCCC2)cc1 | -17.7% |  | 7.31 µM [falling, partial curve, poor fit]
16 | Cn1c(N)c(C(=O)COC(=O)CCC2CCCCC2)c(=O)n(C)c1=O | -46.4% | 0.82 µM [falling, full curve, poor fit] | 0.00461 µM [falling, full curve, poor fit]
17 | CCn1c(=O)n(CC(=O)Nc2cc(OC)c(OC)c(OC)c2)c(=O)c2ccccc21 |  | 6.51 µM [rising, single point] | 
18 | CC1CCCCN1C(=O)CSc1nnc(CSc2ncccn2)n1C (stereo unspecified) | 53% | 2.06 µM [rising, partial curve] | 
19 | CCc1ccccc1NC(=O)CNC(=O)c1cc(C2CC2)nc2c1cnn2C(C)C | 12.8% | 0.58 µM [rising, partial curve, poor fit] | 0.0259 µM [rising, full curve, poor fit]

Row | SMILES | cell number change | AC50 [1] | AC50 [2]
20 | COc1ccc(C(=O)Cn2c(=O)c(CCC(=O)O)nn3c4ccccc4nc23)cc1OC |  | 2.91 µM [falling, single point] | 16.4 µM [falling, partial curve]
21 | CC(CC(=O)O)CC(=O)Nc1nncs1 (stereo unspecified) | -13.5% |  | 0.731 µM [falling, full curve, poor fit]
22 | Oc1ccc(-c2nc3ccccn3c2NCc2ccco2)cc1 | 20.1% | 6.51 µM [rising, single point] | 
23 | C/C(=N\NC(=O)c1c(-c2ccccc2Cl)noc1C)c1cccc(NC(=O)C(C)C)c1 |  |  | 2.91 µM [rising, single point]
24 | CCSc1nnc(CCNS(=O)(=O)c2ccc(C(C)=O)cc2)n1C | 23.3% |  | 
25 | CCn1c2ccc(C)cc2c2nnc(NN)nc21 | 36.1% | 7.31 µM [rising, partial curve] | 7.31 µM [rising, partial curve, poor fit]
26 | O=C(NCc1ccco1)c1cc2nc(-c3ccc4c(c3)OCO4)cc(C(F)(F)F)n2n1 | 70.9% | 0.103 µM [rising, full curve] | 0.0411 µM [rising, full curve]
27 | O=C(CNS(=O)(=O)c1ccc(Br)s1)NCC1COc2ccccc2O1 (stereo unspecified) | -36.2% |  | 1.16 µM [rising, full curve, poor fit]
28 | NS(=O)(=O)c1ccc(NC(=S)NC(=O)/C=C/c2cccs2)cc1 | 7.57% |  | 0.651 µM [rising, full curve, poor fit]
29 | Cc1nccn1Cc1cccc2ccccc12 | 3.78% |  | 0.00461 µM [falling, full curve, poor fit]
30 | COc1ccc(CCNC(=O)CCn2c(=O)c3cccn3c3ccc(F)cc32)c(OC)c1OC | -15% | 6.51 µM [falling, single point] | 
31 | COc1ccccc1-c1nnc(SCC(=O)Nc2c(Cl)cccc2Cl)o1 | 31.1% | 0.411 µM [rising, full curve, poor fit] | 0.461 µM [rising, full curve]
32 | COc1ccc(CCn2c(C)cc(C(=O)CN3C(=O)C(=O)N(Cc4ccco4)C3=O)c2C)cc1 | -1.32% |  | 6.51 µM [rising, single point]
33 | Cn1c2c(c(=O)n(C)c1=O)CN(Cc1ccco1)CN2 | 6.66% |  | 
34 | CC(C)(C)OC(=O)N1CCN(C(=O)c2cccnc2Cl)CC1 | -47.6% | 5.8 µM [falling, full curve] | 6.51 µM [falling, single point]
35 | Cc1nn2c(NCc3ccccn3)c3c(nc2c1-c1ccccc1)CCC3 | 1.85% |  | 0.00517 µM [rising, full curve, poor fit]
36 | CC(=O)Nc1ccc2c(c1)nc1n2CCSC1 | 5.27% |  | 
37 | Cc1ccc(C)c(NC(=O)NC2CCCCCCC2)c1 |  |  | 6.51 µM [rising, single point]
38 | CC1(c2ccc3c(c2)OCO3)NC(=O)N(CC(=O)Nc2ccccc2[N+](=O)[O-])C1=O (stereo unspecified) | 1.82% |  | 6.51 µM [falling, full curve, poor fit]

Looked up above.
cell number change, `O=C1c2ccccc2C(=O)C12OC2c1ccc(Cl)cc1Cl` (stereo unspecified) reads -30.6%
cell number change, `CC(=O)Nc1ccc2c(c1)nc1n2CCSC1` reads 5.27%
cell number change, `Cn1c2c(c(=O)n(C)c1=O)CN(Cc1ccco1)CN2` reads 6.66%
cell number change, `Oc1ccc(-c2nc3ccccn3c2NCc2ccco2)cc1` reads 20.1%
AC50 [2], `C/C(=N\NC(=O)c1ccc2c(c1)OCO2)c1ccc(NC(=O)CCCC(=O)O)cc1` reads 29.1 µM [rising, single point]

The list continues:

Row | SMILES | cell number change | AC50 [1] | AC50 [2]
39 | CC(=O)c1cccc(NC(=O)N2CCC(c3nnc(SCC(N)=O)n3C)CC2)c1 | 60.6% | 20.6 µM [rising, partial curve] | 
40 | O=C(COC(=O)c1ccc(Cl)c(S(=O)(=O)NCc2ccccc2)c1)NCC1CCCO1 (stereo unspecified) | -71.4% | 18.4 µM [falling, partial curve] | 1.64 µM [falling, partial curve]
41 | C=CCOc1ccc(NC(=O)C2CC(=O)N(C(C)C)C2)cc1 (stereo unspecified) | -1.29% |  | 0.58 µM [falling, single point]
42 | CCCN(C(=O)CCl)C1=CCCCC1 | 8.03% |  | 
43 | CC(C)(C)c1ccc(N2C(=O)Cc3c2nc(N)c(C#N)c3N)cc1 | -17.7% |  | 0.58 µM [rising, partial curve]
44 | COc1ccc(C(=O)C2CCCN(C(=O)c3csc(C(C)=O)c3)C2)c(C)c1 (stereo unspecified) | -11.6% | 0.0058 µM [falling, full curve, poor fit] | 0.517 µM [falling, full curve]
45 | O=C(O)C1CC=CCC1C(=O)Nc1ccccc1C(=O)N1CCN(c2ccccc2)CC1 (stereo unspecified) | -14.9% | 6.51 µM [falling, single point] | 29.1 µM [falling, partial curve]
46 | O=C(NNC(=S)NC(=O)c1cn(-c2ccccc2)nc1-c1ccccc1)c1ccncc1 | -27.5% |  | 3.66 µM [falling, partial curve, poor fit]
47 | COc1ccc2[nH]c(=O)c(CN(C(=O)c3cccnc3)c3ccc(C)cc3)cc2c1 | -15.4% |  | 8.2 µM [falling, partial curve]
48 | O=C(c1ccc(-c2ccccc2)cc1)N1CCN(c2ccccn2)CC1 | -48.3% | 29.1 µM [falling, partial curve] | 
49 | Cc1nnc(N2C(=O)c3cccc4cccc(c34)C2=O)s1 | 52.5% | 20.6 µM [rising, single point] | 29.1 µM [rising, single point]
50 | OC(CNCCc1ccc(C(F)(F)F)cc1)COC(c1ccccc1)c1ccccc1 (stereo unspecified) | -69.8% | 4.11 µM [falling, full curve] | 5.17 µM [falling, full curve]
51 | Cc1ccccc1-n1nnnc1SCC(=O)c1c(N)n(C)c(=O)n(C)c1=O | 14.4% |  | 
52 | N#C/C(=C\c1c(Oc2ccc(Cl)cc2)nc2ccccn2c1=O)C(=O)NC1CCS(=O)(=O)C1 (stereo unspecified) | -34.1% | 32.6 µM [falling, single point] | 29.1 µM [falling, single point]
53 | CC(CN1CCCCC1)OC(=O)c1ccc2c(c1)OCCO2 (stereo unspecified) | -7.69% |  | 5.17 µM [falling, single point]
54 | O=C(Nc1cccnc1)c1scc2c1OCCO2 | -1.36% |  | 0.731 µM [rising, full curve]
55 | COc1cc2c3c(c1)C1(C(=O)N3C(C)(C)C=C2C)C(C#N)=C(N)Oc2cc(C)oc(=O)c21 (stereo unspecified) | -2.04% |  | 5.17 µM [rising, single point]
56 | CC(C)(C)OC(=O)N[C@@H](Cc1ccccc1)C(=O)N[C@@H](CO)[C@H](O)[C@@H]1C[C@@H]1C(=O)NC1CC1 | 1.2% |  | 

2 entries picked at random from the list so far, as already listed:
Row | SMILES | cell number change | AC50 [1] | AC50 [2]
45 | O=C(O)C1CC=CCC1C(=O)Nc1ccccc1C(=O)N1CCN(c2ccccc2)CC1 (stereo unspecified) | -14.9% | 6.51 µM [falling, single point] | 29.1 µM [falling, partial curve]
43 | CC(C)(C)c1ccc(N2C(=O)Cc3c2nc(N)c(C#N)c3N)cc1 | -17.7% |  | 0.58 µM [rising, partial curve]
